From publication PMC5222588, “Binding of Myomesin to Obscurin-Like-1 at the Muscle M-Band Provides a Strategy for Isoform-Specific Mechanical Protection” (Structure(London, England:1993), 2017)
These are yes or no findings as the source states them, for the method shown. Some results given as binding are weak or reduced against the parent protein; the word gives no strength.

T1: obscurin-like-1 third immunoglobulin domain (OL3) (human) (UniProt O75147)
T1 sequence: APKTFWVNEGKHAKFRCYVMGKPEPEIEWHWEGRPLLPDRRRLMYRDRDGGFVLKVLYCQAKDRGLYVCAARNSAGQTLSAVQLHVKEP

B1: myomesin region encompassing the fourth and fifth Fn-III domains (My4LMy5) (domain or fragment, human)
chain: PAAPLDVKCLEANKDYIIISWKQPAVDGGSPILGYFIDKCEVGTDSWSQCNDTPVKFARFPVTGLIEGRSYIFRVRAVNKMGIGFPSRVSEPVAALDPAEKARLKSRPSAPWTGQIIVTEEEPSEGIVPGPPTDLSVTEATRSYVVLSWKPPGQRGHEGIMYFVEKCEAGTENWQRVNTELPVKSPRFALFDLAEGKSYCFRVRCSNSAGVGEPSEATEVTVVGDKLDIP
notes: myomesin (MYOM1), human, Fn-III domains My4 and My5 with the linker L between them; My4 begins near residue 510 (My4LH is 510-618); My5 is in the crystallised protein but invisible in the electron density; Construct limits are in the Supplemental Experimental Procedures; also called My4L (name of the part visible in the crystal); source: E. coli, co-expressed with GST-OL3 or GST-O3 from a …
B2: obscurin-like-1 third immunoglobulin domain (OL3) (domain or fragment, UniProt O75147 251-339)
chain: T1 sequence

Tests used:
[1] = target: T1, obscurin-like-1 third immunoglobulin domain (OL3) (human); assay: crystal structure; OL3:My4LMy5 complex at 3.0 mg/mL; 20% PEG8000, 0.1 M Tris-HCl pH 8.5, 0.2 M MgCl2, matrix microseeding; 3.1 Å, space group C2; both purified
[2] = target: myomesin region encompassing the fourth and fifth Fn-III domains (My4LMy5) (human) (UniProt P52179); assay: as above
[3] = target: T1, obscurin-like-1 third immunoglobulin domain (OL3) (human); assay: SAXS; 0.5–4.5 mg/mL in 20 mM HEPES pH 7.5, 500 mM NaCl, 1 mM DTT; 18°C; BM29 (ESRF); both purified

| Binder | binding [1] | binding [2] | binding [3] |
| --- | --- | --- | --- |
| B1 | binds | binds weakly | binds |
| B2 | binds weakly | – | – |
